Results as given in the supplement of paper PMC10849652.
The other results are listed elsewhere or left out.

Protein sequences, listed by entry. Tags and fused reporters are not part of them. Lines headed by an entry give the natural chain unless they say otherwise; changes in a name come on top.
UniProt Q9H4H8: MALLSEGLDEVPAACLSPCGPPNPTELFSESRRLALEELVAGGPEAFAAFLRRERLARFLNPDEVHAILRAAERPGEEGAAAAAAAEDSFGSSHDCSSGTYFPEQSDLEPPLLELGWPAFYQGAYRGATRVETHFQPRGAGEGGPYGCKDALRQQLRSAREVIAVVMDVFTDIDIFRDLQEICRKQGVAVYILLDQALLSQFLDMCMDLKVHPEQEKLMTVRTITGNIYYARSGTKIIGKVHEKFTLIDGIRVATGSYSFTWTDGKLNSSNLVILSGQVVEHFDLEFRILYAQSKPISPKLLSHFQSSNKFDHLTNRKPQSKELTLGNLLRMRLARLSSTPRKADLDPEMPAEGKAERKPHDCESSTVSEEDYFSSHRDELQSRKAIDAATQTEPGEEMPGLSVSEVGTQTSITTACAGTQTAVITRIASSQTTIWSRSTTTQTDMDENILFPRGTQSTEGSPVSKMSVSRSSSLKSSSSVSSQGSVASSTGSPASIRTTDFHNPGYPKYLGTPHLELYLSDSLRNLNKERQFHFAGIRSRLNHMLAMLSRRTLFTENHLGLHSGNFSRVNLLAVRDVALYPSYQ
UniProt Q9UPT5: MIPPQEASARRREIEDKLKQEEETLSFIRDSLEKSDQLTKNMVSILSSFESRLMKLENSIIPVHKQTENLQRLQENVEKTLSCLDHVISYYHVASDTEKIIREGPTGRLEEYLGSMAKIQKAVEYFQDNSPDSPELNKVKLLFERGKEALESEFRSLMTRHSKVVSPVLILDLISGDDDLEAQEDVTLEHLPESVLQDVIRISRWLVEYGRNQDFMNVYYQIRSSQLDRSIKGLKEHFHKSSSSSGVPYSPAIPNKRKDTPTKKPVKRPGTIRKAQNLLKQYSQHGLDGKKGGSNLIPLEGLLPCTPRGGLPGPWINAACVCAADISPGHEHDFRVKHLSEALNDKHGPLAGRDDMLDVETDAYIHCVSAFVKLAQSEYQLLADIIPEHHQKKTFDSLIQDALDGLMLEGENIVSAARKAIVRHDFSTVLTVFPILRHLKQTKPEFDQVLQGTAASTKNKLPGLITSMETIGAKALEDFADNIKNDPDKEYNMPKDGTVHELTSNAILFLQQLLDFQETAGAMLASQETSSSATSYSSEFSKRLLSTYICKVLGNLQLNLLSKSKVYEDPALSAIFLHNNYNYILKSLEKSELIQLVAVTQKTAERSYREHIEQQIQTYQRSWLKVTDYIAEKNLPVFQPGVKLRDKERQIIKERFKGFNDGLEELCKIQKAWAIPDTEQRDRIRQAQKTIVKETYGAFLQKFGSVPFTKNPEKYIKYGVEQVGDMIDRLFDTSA
UniProt P13804: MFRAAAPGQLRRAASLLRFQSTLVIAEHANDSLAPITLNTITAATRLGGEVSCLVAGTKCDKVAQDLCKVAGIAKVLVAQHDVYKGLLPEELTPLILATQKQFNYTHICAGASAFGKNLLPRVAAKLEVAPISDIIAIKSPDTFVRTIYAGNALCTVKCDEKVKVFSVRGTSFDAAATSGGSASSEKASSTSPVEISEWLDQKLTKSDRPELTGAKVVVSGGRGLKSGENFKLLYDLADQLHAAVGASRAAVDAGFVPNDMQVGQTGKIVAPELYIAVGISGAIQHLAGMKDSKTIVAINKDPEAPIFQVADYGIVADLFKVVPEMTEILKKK
UniProt Q7Z309: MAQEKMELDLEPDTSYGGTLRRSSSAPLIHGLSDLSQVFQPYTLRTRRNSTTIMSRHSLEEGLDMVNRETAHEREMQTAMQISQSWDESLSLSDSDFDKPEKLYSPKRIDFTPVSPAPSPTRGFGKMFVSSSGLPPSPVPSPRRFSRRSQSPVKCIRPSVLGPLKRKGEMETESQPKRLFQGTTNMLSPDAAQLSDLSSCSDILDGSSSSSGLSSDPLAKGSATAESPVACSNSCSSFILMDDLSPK
UniProt Q5BKY9: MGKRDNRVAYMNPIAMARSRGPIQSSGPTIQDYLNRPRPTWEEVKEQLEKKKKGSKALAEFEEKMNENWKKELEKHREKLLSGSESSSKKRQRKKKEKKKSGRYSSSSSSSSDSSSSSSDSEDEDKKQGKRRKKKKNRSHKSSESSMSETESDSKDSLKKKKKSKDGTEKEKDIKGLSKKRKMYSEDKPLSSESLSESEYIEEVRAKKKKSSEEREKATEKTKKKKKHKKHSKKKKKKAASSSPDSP
UniProt Q5HYJ3: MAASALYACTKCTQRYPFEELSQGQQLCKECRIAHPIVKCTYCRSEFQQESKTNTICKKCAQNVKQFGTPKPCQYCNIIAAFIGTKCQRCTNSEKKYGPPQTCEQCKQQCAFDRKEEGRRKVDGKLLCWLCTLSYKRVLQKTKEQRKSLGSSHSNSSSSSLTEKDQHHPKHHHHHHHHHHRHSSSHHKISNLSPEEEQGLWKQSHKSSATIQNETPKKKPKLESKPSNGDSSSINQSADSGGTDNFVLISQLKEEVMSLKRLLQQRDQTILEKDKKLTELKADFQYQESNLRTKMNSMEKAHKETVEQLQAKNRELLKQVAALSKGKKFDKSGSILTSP
UniProt Q96PZ2, whole entry, looked up: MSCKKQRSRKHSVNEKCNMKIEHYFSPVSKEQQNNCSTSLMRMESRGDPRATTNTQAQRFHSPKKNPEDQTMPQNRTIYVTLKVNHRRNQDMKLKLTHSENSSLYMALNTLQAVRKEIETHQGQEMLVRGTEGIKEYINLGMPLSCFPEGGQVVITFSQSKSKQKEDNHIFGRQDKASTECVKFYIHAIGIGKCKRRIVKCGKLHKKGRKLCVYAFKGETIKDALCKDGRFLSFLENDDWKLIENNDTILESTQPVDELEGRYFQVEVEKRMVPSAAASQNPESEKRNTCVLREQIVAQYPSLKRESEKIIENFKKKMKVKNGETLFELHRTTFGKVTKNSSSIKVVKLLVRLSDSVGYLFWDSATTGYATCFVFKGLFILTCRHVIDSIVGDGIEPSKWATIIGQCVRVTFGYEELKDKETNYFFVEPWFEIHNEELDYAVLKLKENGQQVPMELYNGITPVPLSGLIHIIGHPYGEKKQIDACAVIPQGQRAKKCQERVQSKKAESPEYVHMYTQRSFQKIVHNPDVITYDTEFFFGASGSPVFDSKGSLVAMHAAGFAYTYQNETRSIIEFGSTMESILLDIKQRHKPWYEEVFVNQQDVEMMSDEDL
UniProt O95718: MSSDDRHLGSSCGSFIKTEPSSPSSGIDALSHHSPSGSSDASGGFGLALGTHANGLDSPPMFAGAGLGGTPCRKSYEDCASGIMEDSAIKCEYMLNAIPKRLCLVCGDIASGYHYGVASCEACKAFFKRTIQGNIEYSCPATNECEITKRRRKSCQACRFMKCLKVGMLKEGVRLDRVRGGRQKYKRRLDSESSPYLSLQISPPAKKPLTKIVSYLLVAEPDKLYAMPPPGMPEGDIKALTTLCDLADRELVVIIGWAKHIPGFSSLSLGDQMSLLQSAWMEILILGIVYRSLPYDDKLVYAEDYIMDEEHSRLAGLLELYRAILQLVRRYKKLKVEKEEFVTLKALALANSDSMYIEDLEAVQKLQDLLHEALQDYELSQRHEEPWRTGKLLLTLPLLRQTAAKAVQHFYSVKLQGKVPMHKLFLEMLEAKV
UniProt Q9NYF3: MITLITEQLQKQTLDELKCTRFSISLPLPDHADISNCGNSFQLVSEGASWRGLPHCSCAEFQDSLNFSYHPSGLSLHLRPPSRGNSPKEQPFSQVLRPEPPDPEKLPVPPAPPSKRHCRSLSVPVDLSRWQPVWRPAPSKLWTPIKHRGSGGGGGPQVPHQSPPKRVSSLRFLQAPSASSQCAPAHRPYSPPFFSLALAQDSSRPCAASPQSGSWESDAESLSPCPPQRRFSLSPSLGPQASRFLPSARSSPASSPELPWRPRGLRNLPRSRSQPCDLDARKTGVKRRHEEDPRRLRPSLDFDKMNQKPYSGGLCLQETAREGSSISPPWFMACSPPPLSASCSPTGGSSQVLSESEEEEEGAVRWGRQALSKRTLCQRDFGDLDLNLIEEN
UniProt O43909: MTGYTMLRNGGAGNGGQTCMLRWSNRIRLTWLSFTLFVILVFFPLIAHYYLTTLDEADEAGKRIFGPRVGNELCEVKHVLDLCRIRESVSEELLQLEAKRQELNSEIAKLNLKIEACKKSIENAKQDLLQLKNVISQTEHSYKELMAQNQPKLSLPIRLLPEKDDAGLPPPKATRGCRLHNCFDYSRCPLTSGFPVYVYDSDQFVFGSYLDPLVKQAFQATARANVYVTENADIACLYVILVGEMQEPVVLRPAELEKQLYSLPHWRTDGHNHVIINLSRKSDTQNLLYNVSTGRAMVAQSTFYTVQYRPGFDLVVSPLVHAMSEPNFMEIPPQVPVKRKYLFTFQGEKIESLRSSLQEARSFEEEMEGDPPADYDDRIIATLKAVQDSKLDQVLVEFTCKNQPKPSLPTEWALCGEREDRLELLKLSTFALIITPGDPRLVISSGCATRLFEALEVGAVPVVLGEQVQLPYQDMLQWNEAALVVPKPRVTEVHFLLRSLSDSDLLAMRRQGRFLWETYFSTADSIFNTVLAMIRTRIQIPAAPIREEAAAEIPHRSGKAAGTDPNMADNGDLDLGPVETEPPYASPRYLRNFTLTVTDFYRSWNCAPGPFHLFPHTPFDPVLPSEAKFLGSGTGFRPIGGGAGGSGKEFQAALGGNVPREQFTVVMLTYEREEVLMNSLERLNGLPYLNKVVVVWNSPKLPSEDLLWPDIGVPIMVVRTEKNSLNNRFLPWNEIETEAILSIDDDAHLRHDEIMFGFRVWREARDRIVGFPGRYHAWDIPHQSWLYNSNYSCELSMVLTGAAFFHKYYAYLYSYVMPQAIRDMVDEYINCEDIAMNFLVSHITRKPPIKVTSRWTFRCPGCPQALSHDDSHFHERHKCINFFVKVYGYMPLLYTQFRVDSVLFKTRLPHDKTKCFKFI
UniProt Q5VUB5: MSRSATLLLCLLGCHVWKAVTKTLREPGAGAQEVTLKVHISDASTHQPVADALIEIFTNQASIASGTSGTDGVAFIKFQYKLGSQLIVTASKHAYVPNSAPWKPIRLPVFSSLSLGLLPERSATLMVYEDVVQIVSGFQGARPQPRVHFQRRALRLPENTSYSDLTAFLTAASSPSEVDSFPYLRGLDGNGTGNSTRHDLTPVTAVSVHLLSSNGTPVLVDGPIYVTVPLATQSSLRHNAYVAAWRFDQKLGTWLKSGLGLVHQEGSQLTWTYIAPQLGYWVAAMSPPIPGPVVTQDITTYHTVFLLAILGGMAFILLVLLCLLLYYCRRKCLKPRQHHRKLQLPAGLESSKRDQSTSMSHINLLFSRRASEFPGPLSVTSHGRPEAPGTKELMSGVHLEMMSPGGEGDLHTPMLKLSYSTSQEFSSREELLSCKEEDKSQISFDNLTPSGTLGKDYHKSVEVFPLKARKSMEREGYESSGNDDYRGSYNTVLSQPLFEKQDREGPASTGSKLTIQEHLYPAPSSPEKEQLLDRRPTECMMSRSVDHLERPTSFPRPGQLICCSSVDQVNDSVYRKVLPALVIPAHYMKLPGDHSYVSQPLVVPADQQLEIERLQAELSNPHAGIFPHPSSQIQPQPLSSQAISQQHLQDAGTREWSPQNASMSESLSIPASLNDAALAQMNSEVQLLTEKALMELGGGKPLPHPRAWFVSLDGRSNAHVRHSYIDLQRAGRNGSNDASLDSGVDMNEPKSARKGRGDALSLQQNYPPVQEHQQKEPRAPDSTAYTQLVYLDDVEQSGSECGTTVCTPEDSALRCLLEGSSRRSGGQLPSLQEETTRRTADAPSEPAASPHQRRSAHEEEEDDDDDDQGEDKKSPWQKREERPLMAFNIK
UniProt Q6P1L5: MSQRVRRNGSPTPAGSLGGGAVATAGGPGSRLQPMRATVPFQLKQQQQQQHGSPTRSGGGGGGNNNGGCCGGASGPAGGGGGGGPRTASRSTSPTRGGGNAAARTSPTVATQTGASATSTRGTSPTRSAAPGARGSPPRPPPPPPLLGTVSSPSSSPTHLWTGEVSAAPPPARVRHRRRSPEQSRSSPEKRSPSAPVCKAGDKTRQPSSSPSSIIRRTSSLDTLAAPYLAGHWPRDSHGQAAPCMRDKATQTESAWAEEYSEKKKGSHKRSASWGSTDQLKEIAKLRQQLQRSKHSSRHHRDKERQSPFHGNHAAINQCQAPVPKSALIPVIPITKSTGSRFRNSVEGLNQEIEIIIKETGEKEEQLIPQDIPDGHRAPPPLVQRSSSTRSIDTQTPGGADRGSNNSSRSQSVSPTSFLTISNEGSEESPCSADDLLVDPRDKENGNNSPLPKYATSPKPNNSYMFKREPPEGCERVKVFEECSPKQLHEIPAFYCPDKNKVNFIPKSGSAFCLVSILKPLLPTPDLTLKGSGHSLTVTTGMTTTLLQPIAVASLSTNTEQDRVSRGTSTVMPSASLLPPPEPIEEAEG
UniProt Q9H8W3: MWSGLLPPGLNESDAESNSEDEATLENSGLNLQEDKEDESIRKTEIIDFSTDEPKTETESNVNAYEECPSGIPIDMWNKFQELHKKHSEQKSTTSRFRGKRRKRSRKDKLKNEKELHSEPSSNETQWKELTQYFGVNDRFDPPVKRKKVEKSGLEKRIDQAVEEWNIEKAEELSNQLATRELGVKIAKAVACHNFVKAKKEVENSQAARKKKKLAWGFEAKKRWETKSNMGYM

Columns and labels:
Experiment in all cases: log2 fold change, soluble protein after heating vs DMSO (PISA); higher = thermal stabilisation; K562 lysate, 10 uM; active = over 0.2 and 3.5 SD of the protein, either way, in both replicates (recomputed)
[1] = compound: C1=CC=C(C=C1)[C@H](COC2=CC3=C(C=C2)NC(=O)N3)NC(=O)C4=CC=CN(C4=O)CC5=CC(=C(C=C5)F)F
In short: (§1)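 Soluble protein was defined as the supernatant remaining after 21,000xg for 90 min, following pooling of heated aliquots and adjustment to 0.5% NP-40 at 4°C. Before that, crude K562 extract at 1 mg/mL protein in PBS pH 7.4 with 1 mM MgCl2 was treated with 10 μM compound for 30 min and heated for 3 min across 48°C-58°C. Quantification used TMTpro 16plex LC-MS/MS with channel sums equalised, and values are log-two fold changes in thermal stability relative to solvent controls from duplicates.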

[2] = compound: CC1=C(SC2=C1C(=N[C@H](C3=NN=C(N32)C)CC(=O)N)C4=CC=C(C=C4)Cl)C
In short: as §1

[3] = compound: CC1=C2C(=CC=C1)N=C(N(C2=O)C3=CC=CC=C3C)CN4C=NC5=C(N=CN=C54)N
In short: as §1

[4] = compound: Cc1sc2c(c1C)C(c1ccc(Cl)cc1)=N[C@@H](CC(=O)OC(C)(C)C)c1nnc(C)n1-2
In short: as §1

[5] = compound: c1ccc([C@@H]2C[C@H]2NC2CCNCC2)cc1
In short: as §1

Measured: log2 fold change

ERMAP (UniProt Q96PL5)
inactive: [1] 0.068 | [2] 0.082 | [3] 0.016 | [4] 0.028 | [5] -0.092

ERP29 (UniProt P30040)
inactive: [1] 0.015 | [2] 0.022 | [3] -0.03 | [4] 0.032 | [5] 0.072

FAM83D (UniProt Q9H4H8)
inactive: [1] -0.021 | [2] 0.023 | [3] 0.035 | [4] -0.02 | [5] -0.006

ERVK3-1, A0A0U1RQV1
inactive: [1] 0.019 | [2] -0.07 | [3] 0.034 | [4] -0.07 | [5] -0.093

EXOC7 (UniProt Q9UPT5)
inactive: [1] -0.07 | [2] -0.008 | [3] 0.046 | [4] -0.067 | [5] 0.012

EXOC3 (UniProt O60645)
inactive: [1] -0.026 | [2] -0.019 | [3] 0.053 | [4] -0.017 | [5] 0.08

ERLIN2 (UniProt O94905)
inactive: [1] 0.009 | [2] -0.007 | [3] 0.016 | [4] -0.126 | [5] 0.143

ETFA (UniProt P13804)
inactive: [1] -0.01 | [2] 0.006 | [3] 0.022 | [4] -0.041 | [5] 0

FAM122B isoform 3 (UniProt Q7Z309)
inactive: [1] -0.028 | [2] -0.017 | [3] -0.101 | [4] 0.138 | [5] 0.149

FAHD2A (UniProt Q96GK7)
inactive: [1] -0.002 | [2] 0.024 | [3] -0.013 | [4] -0.011 | [5] 0.008

FAM133B (UniProt Q5BKY9)
inactive: [1] 0.148 | [2] -0.014 | [3] -0.26 | [4] -0.028 | [5] 0.156

EXOSC10 (UniProt Q01780)
inactive: [1] 0.026 | [2] -0.014 | [3] -0.005 | [4] 0.038 | [5] -0.017

ERLIN1 (UniProt O75477)
inactive: [1] -0.03 | [2] 0.039 | [3] 0.02 | [4] 0.029 | [5] -0.033

FAM49A (UniProt Q9H0Q0)
inactive: [1] 0.139 | [2] -0.001 | [3] 0.053 | [5] -0.085

ETV6 (UniProt P41212)
inactive: [3] -0.001 | [4] -0.026 | [5] 0.077

FAM76B (UniProt Q5HYJ3)
inactive: [3] 0.066 | [4] 0.038 | [5] -0.099

FAM111A (UniProt Q96PZ2)
inactive: [3] -0.008 | [4] -0.097

ESRRB isoform 1 (UniProt O95718)
inactive: [1] -0.147 | [2] 0.109 | [5] 0.321

FAM53C (UniProt Q9NYF3)
inactive: [1] -0.057 | [2] 0.074 | [4] 0 | [5] -0.013

EVI5L isoform 2 (UniProt Q96CN4)
inactive: [5] 0.036

Pulled one by one from the entries so far, 2 records:
FAM133B (UniProt Q5BKY9)
inactive: [1] 0.148 | [2] -0.014 | [3] -0.26 | [4] -0.028 | [5] 0.156

FAM83D (UniProt Q9H4H8)
inactive: [1] -0.021 | [2] 0.023 | [3] 0.035 | [4] -0.02 | [5] -0.006

(further entries)

EXOC3L2, A0A1C7CYX0
inactive: [4] -0.016 | [5] 0.07

ESPN (UniProt B1AK53)
inactive: [4] 0.079

EXD2 (UniProt Q9NVH0)
inactive: [3] 0.119 | [4] 0.001

FAM160B2 (UniProt Q86V87)
inactive: [3] 0.024 | [5] 0.025

EXTL3 (UniProt O43909)
inactive: [3] -0.172 | [4] -0.038 | [5] -0.112

ERV3-1 (UniProt Q14264)
inactive: [4] 0.267

F2RL3 (UniProt Q96RI0)
inactive: [3] 0.032 | [4] 0 | [5] 0.199

FAM171A1 (UniProt Q5VUB5)
inactive: [4] 0.243

FAM117B (UniProt Q6P1L5)
inactive: [3] 0.01 | [4] -0.187 | [5] 0.071

FAM72C (UniProt H0Y354)
inactive: [3] -0.063 | [5] 0.092

FAM204A (UniProt Q9H8W3)
inactive: [3] -0.102 | [5] -0.035

ESCO2 (UniProt Q56NI9)
inactive: [4] -0.195 | [5] 0.295
